In PMC8501957:
Results are given in words; binding and its absence hold for the method and conditions named. Some entries that bind do so weakly or less than the wild type.

Molecular target: MvaT of P. aeruginosa (P. aeruginosa) (UniProt Q9HW86)
Assay: dynamic light scattering; unbound MvaT in solution with and without gp4; methods not shown; both purified

- binding: binds
B1: MvaT of P. aeruginosa (protein, UniProt Q9HW86 1-124)
chain: MSLINEYRATEEAIKELQERLKSLEQDDKLKKELEFEEKLRTLMGTYQKSLRDVISLLDPDAKIGKSTRTAKAPAGKRARKVKQYKNPHTGEVIETKGGNHKTLKEWKAKWGPEAVESWATLLG
